Assay results as given in PubChem BioAssay AID493014 (National Center for Advancing Translational Sciences (NCATS), 2011).
The list shows a part of the results. Further columns of the screen follow, without active or inactive calls. Most of these compounds were active or inconclusive in the main read-out, so they are no random draw. Potencies come from curve fits of mixed quality, noted in brackets.

Test: qHTS Assay to Find Inhibitors of Chronic Active B-Cell Receptor Signaling
Conditions: ABC-DLBCL IkBa-CBG/CBR reporter, luminescence ratio (green luciferase fused to IkBa over red control in TMD8 lymphoma cells), 4 h
How it was run: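 Concentration-response series (up to 46 uM) were applied to TMD8 dual-reporter cells for 4 h at 37C with doxycycline. Green/red ratio, after filter-overlap correction, defined %Activity; red signal alone was normalised to basal cells and zero luminescence.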

[1] = measured here: CBR red luminescence, cell number
[2] = measured here: IkBa-CBG green luminescence

CN(CC(=O)Nc1ccc(F)cc1)C(=O)COC(=O)CNC(=O)c1ccc(Cl)cc1Cl
AC50 [1]: 0.326 µM [falling, full curve, poor fit]

CCCN1CCC(=O)N([C@H](COc2ccccc2)c2ccccc2)CC1
AC50 [1]: 10 µM [falling, partial curve, poor fit]

Cc1ccc(-c2nc(N=Nc3ccc(O)cc3)n[nH]2)cc1
AC50 [1]: 2.31 µM [falling, partial curve]

COC(=O)c1ccc(NC(=O)c2ccc(CN3CCOCC3)cc2)cc1
AC50 [1]: 29.1 µM [rising, single point]

O=C(COC(=O)c1ccc(CNS(=O)(=O)c2ccc(F)c(Cl)c2)cc1)NC1CCCCCCC1
AC50 [1]: 7.31 µM [falling, single point]

COc1ccc(N(C)S(=O)(=O)c2c(C)noc2C)c(OC)c1
AC50 [1]: 14.1 µM [rising, single point]

Cn1cc(C(=O)NCN2CCCCC2)c2ccccc21
AC50 [1]: 0.731 µM [rising, full curve, poor fit]

Oc1ccc(-c2csc(NCc3ccco3)n2)cc1
AC50 [1]: 16.4 µM [falling, single point]

CSc1nc(C)c(Cc2c(F)cccc2Cl)c(=O)[nH]1
AC50 [1]: 14.1 µM [rising, partial curve, poor fit]

Cc1n[nH]c(C)c1CCCCOc1ccccc1F
AC50 [1]: 6.31 µM [rising, single point]

N#Cc1c(Cl)nsc1NC(=O)c1ccccc1
AC50 [1]: 11.2 µM [falling, single point]

COc1ccc(-c2oc(NC(=O)c3ccc(C)cc3)c(C#N)c2-c2ccc(OC)cc2)cc1
AC50 [1]: 1.84 µM [rising, partial curve, poor fit]

COc1ccc(/C(N)=N/OC(=O)Cc2ccccc2[N+](=O)[O-])cc1
AC50 [1]: 2.59 µM [rising, partial curve]

C/C(Cl)=C/Cc1c(C)[nH]c2c(ccc3ccccc32)c1=O
AC50 [1]: 3.55 µM [falling, full curve]

OC(c1ccc(OCc2ccccc2)cc1)c1nnc(-c2ccccc2)o1 (centres undefined)
AC50 [1]: 0.517 µM [rising, full curve, poor fit]

Cc1ccc(C(=O)N/N=C\C=C\c2ccc(Br)cc2)cn1
AC50 [1]: 0.178 µM [falling, full curve]

Cc1c(C(=O)Nc2ccc3c(c2)OCO3)sc2ncn(CC(=O)N3CC(C)CC(C)C3)c(=O)c12 (centres undefined)
AC50 [1]: 18.4 µM [falling, single point]

COc1ccccc1CNC(=O)Cc1csc(NC(=O)Nc2ccccc2OC)n1
AC50 [1]: 29.1 µM [falling, single point]

COc1cc(/C=C(\C#N)C(=O)c2c[nH]c3ccccc23)cc(OC)c1O
AC50 [1]: 22.4 µM [falling, partial curve]

COc1ccc(C)cc1NC(=O)C(NCC1CCCO1)c1ccccc1 (centres undefined)
AC50 [1]: 6.51 µM [rising, single point]

CCOc1ccc2ccccc2c1/C=N/NC(=O)c1ccncc1
AC50 [1]: 20 µM [rising, single point]

CO/N=C(/COc1ccc(F)cc1)c1ccc(OC)cc1
AC50 [1]: 3.55 µM [rising, partial curve, poor fit]

c1ccc(CCNc2ncnc3ccccc23)cc1
AC50 [1]: 17.8 µM [falling, single point]

CCOC(=O)c1[nH]c(C)c(/C=N/O)c1C
AC50 [1]: 11.2 µM [falling, partial curve, poor fit] | AC50 [2]: 11.2 µM [falling, partial curve, poor fit]

Cn1nnnc1Sc1ncnc2scc(-c3cccc(F)c3)c12
AC50 [1]: 2.59 µM [falling, partial curve]

CCCCCCCNC(=O)c1ccc(N2CCC3(CC2)OCCO3)c([N+](=O)[O-])c1
AC50 [2]: 5.8 µM [falling, partial curve, poor fit]

O=C(NCCCc1ccccc1)Nc1cccc(Cl)c1
AC50 [1]: 29.1 µM [falling, single point]

Cc1ccc(-c2nn(-c3ccccc3)cc2/C=C2\SC(=S)N(CCCCCC(=O)O)C2=O)o1
AC50 [1]: 4.47 µM [falling, partial curve, poor fit]

OCc1cc(-c2ccc(Cl)c(Cl)c2)on1
AC50 [1]: 8.91 µM [rising, partial curve, poor fit]

Cc1cccc(NC(=S)NCc2ccc3c(c2)OCO3)c1
AC50 [1]: 0.651 µM [rising, full curve, poor fit]

CCOC(=O)c1ccc(NC(=O)CSc2ccc3ccccc3n2)cc1
AC50 [1]: 0.708 µM [falling, full curve, poor fit]

COc1ccccc1NC(=O)CCC(=O)Nc1cc(OC)c(NC(=O)c2cccs2)cc1OC
AC50 [1]: 35.5 µM [falling, single point]

COc1ccc2oc(=O)c(C(=O)Nc3ccccc3O)cc2c1
AC50 [1]: 3.55 µM [falling, partial curve]

CCOC(=O)c1c(N)c2cc([N+](=O)[O-])ccc2n1C
AC50 [1]: 1.26 µM [rising, partial curve]

O=C(CC1CCCCC1)NCc1ccccn1
AC50 [1]: 29.1 µM [rising, single point]

CCOC(=O)CNC(=O)N1CCC(CCC(=O)N(C)Cc2ccccc2)CC1
AC50 [1]: 3.55 µM [rising, partial curve, poor fit]

COc1ccc(-c2nonc2NC(=O)c2oc3ccc(F)cc3c2C)cc1OC
AC50 [1]: 3.98 µM [rising, single point]

CN1CCN(c2ccc(Cl)cc2NC(=O)C2COc3ccccc3O2)CC1 (centres undefined)
AC50 [1]: 25.1 µM [falling, single point]

O=C(NNC(=O)c1cccs1)Nc1cccc(Cl)c1
AC50 [1]: 35.5 µM [falling, single point]

CCC(C)NC(=O)c1ccc(CSCc2cccc(F)c2)o1 (centres undefined)
AC50 [1]: 29.1 µM [rising, single point]

Cc1nc2cc(NC(=O)NCc3ccccc3)ccc2o1
AC50 [1]: 11.2 µM [falling, partial curve, poor fit]

CCN(CC)CCNC(=O)Cc1c(C(=O)O)n(CC)c2ccccc12
AC50 [1]: 6.51 µM [rising, single point]

NC(=O)SCC(=O)Nc1ccccc1C(=O)O
AC50 [1]: 35.5 µM [falling, single point]
